# Patent US20210361638A1, “FXR AGONISTS FOR THE TREATMENT OF LIVER DISEASES” (NOVARTIS AG, priority 2017, published 2021)
# For at least one compound, name, drawing or mass did not settle the structure.
# Tests used:
# [1] = tested on: NASH subjects; conditions: FLINT trial, cited from earlier work
# [2] = tested on: NASH mice; experiment: Diet-induced (AMLN diet) insulin-resistant NASH mouse model; type: in vivo, C57B16 mice; conditions: OCA 25 mg/kg
# From the text: A separate model for diet-induced NASH was developed as described by Trevaskis et al. Male C57B16 mice aged […] were maintained on a high fat (40% kcal; Primex), high fructose (22% by weight), and high cholesterol (2% by weight) diet (Research Diets Inc., New Brunswick, N.J. cat. no. D09100301) for 26 weeks to induce NASH. Control animals received low-fat diet (10% kcal) with no fructose or cholesterol (Research Diets, cat. no. D09100304). […] . Expression of collagen, type I, alpha 1 (Col1a1) and tissue inhibitor of metalloproteinase 1 (Timp1) genes was analyzed by real time quantitative PCR.
# [3] = tested on: ANIT-induced cholestatic rats; experiment: ANIT-induced cholestasis rat model; type: in vivo, Sprague-Dawley (SD) rats; conditions: 25 mg/kg dose
# Protocol: Experimental protocols were approved by the local Animal Care and Use Committee and were in compliance with Animal Welfare Act regulations and US regulation (Guide for the Care and Use of Laboratory Animals). […] . The tropifexor-treated rats were sacrificed at 1 and 7 h (n=3/time point) and OCA-treated rats were sacrificed at 1, 3, and 7 h (n=3/time point) after the final dose on day 14 for analysis of target gene expression and serum biomarkers. […] .
# [4] = tested on: STAM mice; experiment: STAM mouse model of NASH; conditions: OCA 25 mg/kg
smiles,measurement,setting,value
"CC[C@H]1[C@@H](O)[C@@H]2[C@H](CC[C@]3(C)[C@@H]([C@H](C)CCC(=O)O)CC[C@@H]23)[C@@]2(C)CC[C@@H](O)C[C@@H]12 [OCA, 6α-ethyl-chenodeoxycholic acid, reference compound]",patients showing improvement in fibrosis,[1]; 19% of placebo-treated patients,35%
same,NASH resolution compared to placebo,[1],no significant change
same,ALT and AST levels,[2],did not show a statistically significant effect
same,total BA and bilirubin,[3],significant decrease
same,liver triglycerides,[4],did not result in a significant decrease
same,NAS,[4]; P>0.05,tended toward reduction
